In paper PMC8132058:
These are yes or no findings as the source states them, for the method shown. Binding seen in cells or lysates may run through a third protein. Some results given as binding are weak or reduced against the parent protein; the word gives no strength.

Chains of the proteins cited; added tags and fusions are not shown.
UniProt Q13620: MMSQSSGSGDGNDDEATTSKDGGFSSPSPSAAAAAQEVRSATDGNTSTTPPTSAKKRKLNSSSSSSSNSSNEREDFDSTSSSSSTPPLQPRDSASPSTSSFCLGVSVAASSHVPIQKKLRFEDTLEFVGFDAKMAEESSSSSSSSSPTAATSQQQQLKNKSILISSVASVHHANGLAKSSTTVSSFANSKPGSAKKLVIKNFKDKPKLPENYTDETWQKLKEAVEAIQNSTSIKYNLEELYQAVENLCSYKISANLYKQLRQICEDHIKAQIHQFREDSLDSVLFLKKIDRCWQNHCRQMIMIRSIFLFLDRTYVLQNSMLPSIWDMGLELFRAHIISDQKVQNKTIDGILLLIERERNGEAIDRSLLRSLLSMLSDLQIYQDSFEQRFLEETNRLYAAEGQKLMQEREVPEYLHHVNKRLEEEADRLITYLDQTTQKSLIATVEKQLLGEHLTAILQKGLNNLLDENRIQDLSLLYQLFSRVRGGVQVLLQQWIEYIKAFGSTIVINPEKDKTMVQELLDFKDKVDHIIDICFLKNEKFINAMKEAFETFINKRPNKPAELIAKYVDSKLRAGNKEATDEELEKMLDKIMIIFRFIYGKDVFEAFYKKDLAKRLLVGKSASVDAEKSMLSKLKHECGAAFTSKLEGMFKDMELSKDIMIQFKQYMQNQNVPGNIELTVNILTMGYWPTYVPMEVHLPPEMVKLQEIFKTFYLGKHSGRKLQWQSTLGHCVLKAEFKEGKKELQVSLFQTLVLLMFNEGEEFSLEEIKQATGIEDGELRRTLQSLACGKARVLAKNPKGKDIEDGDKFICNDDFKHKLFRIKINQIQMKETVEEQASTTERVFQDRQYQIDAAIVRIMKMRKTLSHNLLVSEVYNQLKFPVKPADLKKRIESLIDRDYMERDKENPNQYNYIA
UniProt Q15672: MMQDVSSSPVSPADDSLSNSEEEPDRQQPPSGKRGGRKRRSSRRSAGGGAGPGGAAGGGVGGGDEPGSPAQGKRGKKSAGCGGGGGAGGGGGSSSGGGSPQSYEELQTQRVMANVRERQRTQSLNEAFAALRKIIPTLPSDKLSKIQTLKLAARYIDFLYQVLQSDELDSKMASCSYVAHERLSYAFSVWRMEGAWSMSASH
UniProt O95863: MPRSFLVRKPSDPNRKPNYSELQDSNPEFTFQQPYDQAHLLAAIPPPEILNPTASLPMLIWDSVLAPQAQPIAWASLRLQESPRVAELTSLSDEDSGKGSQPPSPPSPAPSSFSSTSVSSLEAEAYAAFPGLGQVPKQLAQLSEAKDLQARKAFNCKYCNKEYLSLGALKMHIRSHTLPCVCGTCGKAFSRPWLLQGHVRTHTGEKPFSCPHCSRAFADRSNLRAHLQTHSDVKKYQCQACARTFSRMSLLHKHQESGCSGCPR
UniProt Q96BD5: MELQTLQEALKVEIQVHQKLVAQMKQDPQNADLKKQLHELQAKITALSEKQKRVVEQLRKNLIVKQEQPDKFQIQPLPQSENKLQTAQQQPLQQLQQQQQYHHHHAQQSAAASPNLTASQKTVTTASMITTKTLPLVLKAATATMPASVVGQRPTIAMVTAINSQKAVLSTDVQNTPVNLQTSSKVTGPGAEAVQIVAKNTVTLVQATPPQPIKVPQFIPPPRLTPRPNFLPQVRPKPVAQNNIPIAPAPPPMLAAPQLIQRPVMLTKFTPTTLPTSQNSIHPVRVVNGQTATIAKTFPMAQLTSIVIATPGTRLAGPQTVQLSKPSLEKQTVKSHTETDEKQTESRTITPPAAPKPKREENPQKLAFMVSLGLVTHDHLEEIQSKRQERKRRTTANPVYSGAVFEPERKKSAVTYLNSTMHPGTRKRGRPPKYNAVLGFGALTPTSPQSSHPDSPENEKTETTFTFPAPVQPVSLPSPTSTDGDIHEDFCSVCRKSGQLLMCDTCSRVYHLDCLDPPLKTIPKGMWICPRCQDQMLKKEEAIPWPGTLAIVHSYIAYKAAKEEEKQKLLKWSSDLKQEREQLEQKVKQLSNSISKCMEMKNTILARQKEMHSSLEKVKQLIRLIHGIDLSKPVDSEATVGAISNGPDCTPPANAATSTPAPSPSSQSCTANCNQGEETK
UniProt Q9UKL0: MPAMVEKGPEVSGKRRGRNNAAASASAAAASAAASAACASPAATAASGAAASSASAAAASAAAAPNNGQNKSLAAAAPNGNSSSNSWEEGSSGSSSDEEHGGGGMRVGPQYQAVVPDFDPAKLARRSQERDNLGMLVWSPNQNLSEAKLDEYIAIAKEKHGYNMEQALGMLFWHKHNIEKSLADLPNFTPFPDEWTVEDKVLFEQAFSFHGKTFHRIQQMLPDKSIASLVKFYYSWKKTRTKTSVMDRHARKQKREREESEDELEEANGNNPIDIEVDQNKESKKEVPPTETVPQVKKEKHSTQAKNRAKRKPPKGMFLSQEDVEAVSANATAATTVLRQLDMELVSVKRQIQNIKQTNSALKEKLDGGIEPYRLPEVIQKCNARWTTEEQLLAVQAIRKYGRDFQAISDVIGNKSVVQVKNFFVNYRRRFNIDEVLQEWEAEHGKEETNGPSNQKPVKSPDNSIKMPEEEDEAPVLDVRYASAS
UniProt O75376: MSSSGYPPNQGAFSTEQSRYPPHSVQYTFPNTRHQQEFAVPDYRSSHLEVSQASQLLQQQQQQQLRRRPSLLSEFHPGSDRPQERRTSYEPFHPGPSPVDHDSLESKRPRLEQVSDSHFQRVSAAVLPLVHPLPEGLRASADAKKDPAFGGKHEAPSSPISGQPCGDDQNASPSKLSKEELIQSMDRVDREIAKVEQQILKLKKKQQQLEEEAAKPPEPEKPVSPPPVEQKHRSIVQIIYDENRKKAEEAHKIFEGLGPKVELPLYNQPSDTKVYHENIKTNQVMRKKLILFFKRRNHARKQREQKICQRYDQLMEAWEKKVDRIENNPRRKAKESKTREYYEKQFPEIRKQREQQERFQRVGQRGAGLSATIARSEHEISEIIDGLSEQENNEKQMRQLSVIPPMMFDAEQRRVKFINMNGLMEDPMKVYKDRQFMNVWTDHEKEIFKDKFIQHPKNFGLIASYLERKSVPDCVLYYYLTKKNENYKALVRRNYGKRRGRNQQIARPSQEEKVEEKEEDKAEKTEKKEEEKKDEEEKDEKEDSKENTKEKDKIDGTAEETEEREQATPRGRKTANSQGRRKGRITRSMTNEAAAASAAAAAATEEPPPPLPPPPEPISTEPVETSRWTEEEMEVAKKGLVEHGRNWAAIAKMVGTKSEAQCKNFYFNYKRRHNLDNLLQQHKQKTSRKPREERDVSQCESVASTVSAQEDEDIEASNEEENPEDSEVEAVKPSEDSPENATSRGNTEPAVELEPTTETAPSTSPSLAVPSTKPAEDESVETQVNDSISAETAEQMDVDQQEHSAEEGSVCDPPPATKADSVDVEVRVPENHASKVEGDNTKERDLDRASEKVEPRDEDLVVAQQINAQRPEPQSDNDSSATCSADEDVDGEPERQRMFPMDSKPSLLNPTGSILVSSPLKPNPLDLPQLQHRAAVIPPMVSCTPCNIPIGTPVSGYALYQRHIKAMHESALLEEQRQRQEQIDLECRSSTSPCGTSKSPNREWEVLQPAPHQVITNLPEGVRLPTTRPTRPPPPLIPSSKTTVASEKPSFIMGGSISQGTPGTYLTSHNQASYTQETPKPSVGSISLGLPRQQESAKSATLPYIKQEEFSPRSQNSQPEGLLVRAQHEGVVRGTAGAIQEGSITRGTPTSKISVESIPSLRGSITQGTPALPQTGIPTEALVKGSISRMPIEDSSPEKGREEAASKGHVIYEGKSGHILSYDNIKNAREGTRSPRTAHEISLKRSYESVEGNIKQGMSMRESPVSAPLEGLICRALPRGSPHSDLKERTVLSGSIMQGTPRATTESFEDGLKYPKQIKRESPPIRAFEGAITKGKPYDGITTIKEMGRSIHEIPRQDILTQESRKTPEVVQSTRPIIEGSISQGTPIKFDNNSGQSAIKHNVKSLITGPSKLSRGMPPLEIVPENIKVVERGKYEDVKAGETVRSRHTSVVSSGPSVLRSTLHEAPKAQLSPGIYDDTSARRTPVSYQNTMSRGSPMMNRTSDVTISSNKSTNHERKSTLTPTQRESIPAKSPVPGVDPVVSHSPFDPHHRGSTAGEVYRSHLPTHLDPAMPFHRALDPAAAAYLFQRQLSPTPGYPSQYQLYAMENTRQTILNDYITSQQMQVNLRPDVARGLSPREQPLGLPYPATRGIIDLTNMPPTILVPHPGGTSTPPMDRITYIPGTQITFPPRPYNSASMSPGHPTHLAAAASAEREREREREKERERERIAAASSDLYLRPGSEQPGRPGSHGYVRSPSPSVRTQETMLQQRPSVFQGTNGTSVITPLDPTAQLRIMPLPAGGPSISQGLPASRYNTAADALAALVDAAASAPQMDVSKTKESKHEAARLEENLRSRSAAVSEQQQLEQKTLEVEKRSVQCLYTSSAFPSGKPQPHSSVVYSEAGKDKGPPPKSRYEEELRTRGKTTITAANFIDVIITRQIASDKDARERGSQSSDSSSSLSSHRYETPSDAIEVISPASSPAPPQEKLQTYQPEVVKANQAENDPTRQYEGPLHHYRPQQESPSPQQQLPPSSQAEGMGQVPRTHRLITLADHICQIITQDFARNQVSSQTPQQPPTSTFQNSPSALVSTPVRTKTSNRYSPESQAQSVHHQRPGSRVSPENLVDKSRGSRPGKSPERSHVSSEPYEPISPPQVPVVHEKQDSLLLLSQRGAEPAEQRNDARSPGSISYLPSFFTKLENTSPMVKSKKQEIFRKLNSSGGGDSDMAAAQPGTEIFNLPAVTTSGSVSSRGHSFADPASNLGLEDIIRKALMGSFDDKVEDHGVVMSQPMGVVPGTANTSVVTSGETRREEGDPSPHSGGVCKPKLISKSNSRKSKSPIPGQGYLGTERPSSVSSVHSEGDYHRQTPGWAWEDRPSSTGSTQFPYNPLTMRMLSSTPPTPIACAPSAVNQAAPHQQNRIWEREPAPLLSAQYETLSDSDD
UniProt Q09028: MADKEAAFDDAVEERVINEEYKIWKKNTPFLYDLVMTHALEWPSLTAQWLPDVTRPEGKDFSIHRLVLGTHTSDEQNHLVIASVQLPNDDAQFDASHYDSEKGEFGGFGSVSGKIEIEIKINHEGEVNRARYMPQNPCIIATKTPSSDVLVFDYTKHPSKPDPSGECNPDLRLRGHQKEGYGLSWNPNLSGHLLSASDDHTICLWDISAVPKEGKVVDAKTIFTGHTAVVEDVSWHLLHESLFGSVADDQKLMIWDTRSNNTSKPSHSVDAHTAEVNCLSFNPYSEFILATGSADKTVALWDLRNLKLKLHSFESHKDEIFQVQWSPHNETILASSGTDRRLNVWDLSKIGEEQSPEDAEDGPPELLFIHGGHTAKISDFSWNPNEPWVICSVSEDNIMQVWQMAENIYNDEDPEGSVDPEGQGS
UniProt Q13227: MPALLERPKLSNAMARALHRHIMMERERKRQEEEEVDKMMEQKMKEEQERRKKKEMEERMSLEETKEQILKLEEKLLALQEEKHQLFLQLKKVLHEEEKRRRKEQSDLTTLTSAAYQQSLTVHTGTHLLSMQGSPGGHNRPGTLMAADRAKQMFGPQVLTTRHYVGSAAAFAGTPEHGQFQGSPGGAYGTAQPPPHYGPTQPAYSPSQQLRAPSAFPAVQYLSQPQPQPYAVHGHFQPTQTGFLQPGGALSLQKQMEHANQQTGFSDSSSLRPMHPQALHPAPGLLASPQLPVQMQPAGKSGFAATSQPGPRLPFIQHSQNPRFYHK

B1: SAP180 (endogenous) (protein, UniProt Q4LE39 1-1312)
chain: MKALDEPPYLTVGTDVSAKYRGAFCEAKIKTAKRLVKVKVTFRHDSSTVEVQDDHIKGPLKVGAIVEVKNLDGAYQEAVINKLTDASWYTVVFDDGDEKTLRRSSLCLKGERHFAESETLDQLPLTNPEHFGTPVIGKKTNRGRRSNHIPEEESSSSSSDEDEDDRKQIDELLGKVVCVDYISLDKKKALWFPALVVCPDCSDEIAVKKDNILVRSFKDGKFTSVPRKDVHEITSDTAPKPDAVLKQAFEQALEFHKSRTIPANWKTELKEDSSSSEAEEEEEEEDDEKEKEDNSSEEEEEIEPFPEERENFLQQLYKFMEDRGTPINKRPVLGYRNLNLFKLFRLVHKLGGFDNIESGAVWKQVYQDLGIPVLNSAAGYNVKCAYKKYLYGFEEYCRSANIEFQMALPEKVVNKQCKECENVKEIKVKEENETEIKEIKMEEERNIIPREEKPIEDEIERKENIKPSLGSKKNLLESIPTHSDQEKEVNIKKPEDNENLDDKDDDTTRVDESLNIKVEAEEEKAKSGDETNKEEDEDDEEAEEEEEEEEEEEDEDDDDNNEEEEFECYPPGMKVQVRYGRGKNQKMYEASIKDSDVEGGEVLYLVHYCGWNVRYDEWIKADKIVRPADKNVPKIKHRKKIKNKLDKEKDKDEKYSPKNCKLRRLSKPPFQTNPSPEMVSKLDLTDAKNSDTAHIKSIEITSILNGLQASESSAEDSEQEDERGAQDMDNNGKEESKIDHLTNNRNDLISKEEQNSSSLLEENKVHADLVISKPVSKSPERLRKDIEVLSEDTDYEEDEVTKKRKDVKKDTTDKSSKPQIKRGKRRYCNTEECLKTGSPGKKEEKAKNKESLCMENSSNSSSDEDEEETKAKMTPTKKYNGLEEKRKSLRTTGFYSGFSEVAEKRIKLLNNSDERLQNSRAKDRKDVWSSIQGQWPKKTLKELFSDSDTEAAASPPHPAPEEGVAEESLQTVAEEESCSPSVELEKPPPVNVDSKPIEEKTVEVNDRKAEFPSSGSNSVLNTPPTTPESPSSVTVTEGSRQQSSVTVSEPLAPNQEEVRSIKSETDSTIEVDSVAGELQDLQSEGNSSPAGFDASVSSSSSNQPEPEHPEKACTGQKRVKDAQGGGSSSKKQKRSHKATVVNNKKKGKGTNSSDSEELSAGESITKSQPVKSVSTGMKSHSTKSPARTQSPGKCGKNGDKDPDLKEPSNRLPKVYKWSFQMSDLENMTSAERITILQEKLQEIRKHYLSLKSEVASIDRRRKRLKKKERESAATSSSSSSPSSSSITAAVMLTLAEPSMSSASQNGMSVECR
B2: SAP130 (endogenous) (protein, UniProt Q9H0E3 1-1048)
chain: MGPPRHPQAGEIEAGGAGGGRRLQVEMSSQQFPRLGAPSTGLSQAPSQIANSGSAGLINPAATVNDESGRDSEVSAREHMSSSSSLQSREEKQEPVVVRPYPQVQMLSTHHAVASATPVAVTAPPAHLTPAVPLSFSEGLMKPPPKPTMPSRPIAPAPPSTLSLPPKVPGQVTVTMESSIPQASAIPVATISGQQGHPSNLHHIMTTNVQMSIIRSNAPGPPLHIGASHLPRGAAAAAVMSSSKVTTVLRPTSQLPNAATAQPAVQHIIHQPIQSRPPVTTSNAIPPAVVATVSATRAQSPVITTTAAHATDSALSRPTLSIQHPPSAAISIQRPAQSRDVTTRITLPSHPALGTPKQQLHTMAQKTIFSTGTPVAAATVAPILATNTIPSATTAGSVSHTQAPTSTIVTMTVPSHSSHATAVTTSNIPVAKVVPQQITHTSPRIQPDYPAERSSLIPISGHRASPNPVAMETRSDNRPSVPVQFQYFLPTYPPSAYPLAAHTYTPITSSVSTIRQYPVSAQAPNSAITAQTGVGVASTVHLNPMQLMTVDASHARHIQGIQPAPISTQGIQPAPIGTPGIQPAPLGTQGIHSATPINTQGLQPAPMGTQQPQPEGKTSAVVLADGATIVANPISNPFSAAPAATTVVQTHSQSASTNAPAQGSSPRPSILRKKPATDGAKPKSEIHVSMATPVTVSMETVSNQNNDQPTIAVPPTAQQPPPTIPTMIAAASPPSQPAVALSTIPGAVPITPPITTIAAAPPPSVTVGGSLSSVLGPPVPEIKVKEEVEPMDIMRPVSAVPPLATNTVSPSLALLANNLSMPTSDLPPGASPRKKPRKQQHVISTEEGDMMETNSTDDEKSTAKSLLVKAEKRKSPPKEYIDEEGVRYVPVRPRPPITLLRHYRNPWKAAYHHFQRYSDVRVKEEKKAMLQEIANQKGVSCRAQGWKVHLCAAQLLQLTNLEHDVYERLTNLQEGIIPKKKAATDDDLHRINELIQGNMQRCKLVMDQISEARDSMLKVLDHKDRVLKLLNKNGTVKKVSKLKRKEKV
B3: SAP30 (endogenous) (protein, UniProt O75446 1-220)
chain: MNGFTPDEMSRGGDAAAAVAAVVAAAAAAASAGNGTGAGTGAEVPGAGAVSAAGPPGAAGPGPGQLCCLREDGERCGRAAGNASFSKRIQKSISQKKVKIELDKSARHLYICDYHKNLIQSVRNRRKRKGSDDDGGDSPVQDIDTPEVDLYQLQVNTLRRYKRHFKLPTRPGLNKAQLVEIVGCHFRSIPVNEKDTLTYFIYSVKNDKNKSDLKVDSGVH
B4: SAP18 (endogenous) (protein, UniProt O00422 1-153)
chain: MAVESRVTQEEIKKEPEKPIDREKTCPLLLRVFTTNNGRHHRMDEFSRGNVPSSELQIYTWMDATLKELTSLVKEVYPEARKKGTHFNFAIVFTDVKRPGYRVKEIGSTMSGRKGTDDSMTLQSQKFQIGDYLDIAITPPNRAPPPSGRMRPY
B5: REST (endogenous) (protein, UniProt Q13127 1-1097)
chain: MATQVMGQSSGGGGLFTSSGNIGMALPNDMYDLHDLSKAELAAPQLIMLANVALTGEVNGSCCDYLVGEERQMAELMPVGDNNFSDSEEGEGLEESADIKGEPHGLENMELRSLELSVVEPQPVFEASGAPDIYSSNKDLPPETPGAEDKGKSSKTKPFRCKPCQYEAESEEQFVHHIRVHSAKKFFVEESAEKQAKARESGSSTAEEGDFSKGPIRCDRCGYNTNRYDHYTAHLKHHTRAGDNERVYKCIICTYTTVSEYHWRKHLRNHFPRKVYTCGKCNYFSDRKNNYVQHVRTHTGERPYKCELCPYSSSQKTHLTRHMRTHSGEKPFKCDQCSYVASNQHEVTRHARQVHNGPKPLNCPHCDYKTADRSNFKKHVELHVNPRQFNCPVCDYAASKKCNLQYHFKSKHPTCPNKTMDVSKVKLKKTKKREADLPDNITNEKTEIEQTKIKGDVAGKKNEKSVKAEKRDVSKEKKPSNNVSVIQVTTRTRKSVTEVKEMDVHTGSNSEKFSKTKKSKRKLEVDSHSLHGPVNDEESSTKKKKKVESKSKNNSQEVPKGDSKVEENKKQNTCMKKSTKKKTLKNKSSKKSSKPPQKEPVEKGSAQMDPPQMGPAPTEAVQKGPVQVEPPPPMEHAQMEGAQIRPAPDEPVQMEVVQEGPAQKELLPPVEPAQMVGAQIVLAHMELPPPMETAQTEVAQMGPAPMEPAQMEVAQVESAPMQVVQKEPVQMELSPPMEVVQKEPVQIELSPPMEVVQKEPVKIELSPPIEVVQKEPVQMELSPPMGVVQKEPAQREPPPPREPPLHMEPISKKPPLRKDKKEKSNMQSERARKEQVLIEVGLVPVKDSWLLKESVSTEDLSPPSPPLPKENLREEASGDQKLLNTGEGNKEAPLQKVGAEEADESLPGLAANINESTHISSSGQNLNTPEGETLNGKHQTDSIVCEMKMDTDQNTRENLTGINSTVEEPVSPMLPPSAVEEREAVSKTALASPPATMAANESQEIDEDEGIHSHEGSDLSDNMSEGSDDSGLHGARPVPQESSRKNAKEALAVKAAKGDFVCIFCDRSFRKGKDYSKHLNRHLVNVYYLEEAAQGQE
B6: Slug (endogenous) (protein, UniProt O43623 1-268)
chain: MPRSFLVKKHFNASKKPNYSELDTHTVIISPYLYESYSMPVIPQPEILSSGAYSPITVWTTAAPFHAQLPNGLSPLSGYSSSLGRVSPPPPSDTSSKDHSGSESPISDEEERLQSKLSDPHAIEAEKFQCNLCNKTYSTFSGLAKHKQLHCDAQSRKSFSCKYCDKEYVSLGALKMHIRTHTLPCVCKICGKAFSRPWLLQGHIRTHTGEKPFSCPHCNRAFADRSNLRAHLQTHSDVKKYQCKNCSKTFSRMSLLHKHEESGCCVAH
B7: ZEB2 (endogenous) (protein, UniProt O60315 1-1214)
chain: MKQPIMADGPRCKRRKQANPRRKNVVNYDNVVDTGSETDEEDKLHIAEDDGIANPLDQETSPASVPNHESSPHVSQALLPREEEEDEIREGGVEHPWHNNEILQASVDGPEEMKEDYDTMGPEATIQTAINNGTVKNANCTSDFEEYFAKRKLEERDGHAVSIEEYLQRSDTAIIYPEAPEELSRLGTPEANGQEENDLPPGTPDAFAQLLTCPYCDRGYKRLTSLKEHIKYRHEKNEENFSCPLCSYTFAYRTQLERHMVTHKPGTDQHQMLTQGAGNRKFKCTECGKAFKYKHHLKEHLRIHSGEKPYECPNCKKRFSHSGSYSSHISSKKCIGLISVNGRMRNNIKTGSSPNSVSSSPTNSAITQLRNKLENGKPLSMSEQTGLLKIKTEPLDFNDYKVLMATHGFSGTSPFMNGGLGATSPLGVHPSAQSPMQHLGVGMEAPLLGFPTMNSNLSEVQKVLQIVDNTVSRQKMDCKAEEISKLKGYHMKDPCSQPEEQGVTSPNIPPVGLPVVSHNGATKSIIDYTLEKVNEAKACLQSLTTDSRRQISNIKKEKLRTLIDLVTDDKMIENHNISTPFSCQFCKESFPGPIPLHQHERYLCKMNEEIKAVLQPHENIVPNKAGVFVDNKALLLSSVLSEKGMTSPINPYKDHMSVLKAYYAMNMEPNSDELLKISIAVGLPQEFVKEWFEQRKVYQYSNSRSPSLERSSKPLAPNSNPPTKDSLLPRSPVKPMDSITSPSIAELHNSVTNCDPPLRLTKPSHFTNIKPVEKLDHSRSNTPSPLNLSSTSSKNSHSSSYTPNSFSSEELQAEPLDLSLPKQMKEPKSIIATKNKTKASSISLDHNSVSSSSENSDEPLNLTFIKKEFSNSNNLDNKSTNPVFSMNPFSAKPLYTALPPQSAFPPATFMPPVQTSIPGLRPYPGLDQMSFLPHMAYTYPTGAATFADMQQRRKYQRKQGFQGELLDGAQDYMSGLDDMTDSDSCLSRKKIKKTESGMYACDLCDKTFQKSSSLLRHKYEHTGKRPHQCQICKKAFKHKHHLIEHSRLHSGEKPYQCDKCGKRFSHSGSYSQHMNHRYSYCKREAEEREAAEREAREKGHLEPTELLMNRAYLQSITPQGYSDSEERESMPRDGESEKEHEKEGEDGYGKLGRQDGDEEFEEEEEESENKSMDTDPETIRDEEETGDHSMDDSSEDGKMETKSDHEEDNMEDGM

What follows are molecules tested against CUL4B (endogenous) (human (endogenous in MCF-7, MDA-MB-231, HEK293T)) (UniProt Q13620) (assay: co-IP; endogenous proteins, MCF-7 whole-cell lysates (50 mM Tris-HCl pH 8.0, 150 mM NaCl, 0.5% NP40); IP with anti-CUL4B, anti-DDB1 or anti-ROC1, 12 h at 4 °C, immunoblot).

Which binding does the source give for B1 here?
Its binding is “binds”.

Which binding does the source give for B2 here?
The binding was “binds”.

For B3, which binding is on record?
Its binding is “binds”.

How did the binding turn out when B4 was run?
The binding was “binds”.

B5 was tested. Which binding did it give?
Its binding is “binds”.

The molecules below were run against CUL4B (endogenous) (human (endogenous in MCF-7, MDA-MB-231, HEK293T)) (UniProt Q13620) (assay: co-IP; endogenous proteins, MDA-MB-231 cells; IP with anti-CUL4B, immunoblot).

For “Twist (endogenous) (from UniProt Q15672 1-202)”, which binding is on record?
The binding was “binds”.

For “Snail (endogenous) (from UniProt O95863 1-264)”, which binding is on record?
The binding was “binds”.

For B6, which binding is on record?
The binding was “binds”.

For B7, which binding is on record?
Its binding is “binds”.

Target: CUL4B (endogenous) (human (endogenous in MCF-7, MDA-MB-231, HEK293T)) (UniProt Q13620)
Experiment: co-IP; endogenous proteins, MCF-7 whole-cell lysates (50 mM Tris-HCl pH 8.0, 150 mM NaCl, 0.5% NP40); IP with anti-CUL4B, anti-DDB1 or anti-ROC1, 12 h at 4 °C, immunoblot
Remark: another data set of the same source

“CTBP2 (endogenous) (from UniProt P56545 1-445)” was tested. Which binding did it give?
The binding was “binds”.

For “BHC80 (endogenous) (from UniProt Q96BD5 1-680)”, which binding is on record?
The binding was “binds”.

For “CoREST (endogenous) (from UniProt Q9UKL0 1-485)”, which binding is on record?
The binding was “binds”.

Which binding does the source give for “NCoR (endogenous) (from UniProt O75376 1-2440)” here?
Its binding is “binds”.

Which binding does the source give for “RbAp48 (endogenous) (from UniProt Q09028 1-425)” here?
The binding was “binds”.

For “GPS2 (endogenous) (from UniProt Q13227 1-327)”, which binding is on record?
The binding was “binds”.
